# At least one read-out could not be matched to a standard name with certainty.
# Assay: Pharmacokinetics after multiple intramuscular doses to horses
# Conditions: intramuscular 2, 6 or 10 mg/kg, three doses seven days apart; across all doses and administrations
# Protocol: Eighteen adult horses were randomized into three equal treatment groups and assigned one of three doses: 2 mg/kg (1×), 6 mg/kg (3×), or 10 mg/kg (5×). Doses were administered intramuscularly. Each horse received the assigned dose three times, seven days apart. Blood samples were collected at 1, 2, 4, 6, 8, 12, 24, 36, 48, 72, 96, 120, 144 hrs after each dosing, then every 48 hours until Day 28. Esomeprazole was quantified by LC-MS/MS. Data were subjected to noncompartmental analysis.
smiles,measurement,value
COc1ccc2nc([S@@+]([O-])Cc3ncc(C)c(OC)c3C)[nH]c2c1 [esomeprazole],Time to maximum concentrations (Cmax) of esomeprazole,1.2 to 2 h
